PubChem BioAssay AID1259254 – NCATS, 2017
The whole screen tested about 59,000 reagents; this is an unselected part. Of all reagents, about 1,550 (2.6%) are marked active. 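G2 share is only a proxy for re-replication; each gene was hit by three separate siRNAs, and active genes were retested.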 Raw values are not corrected between plates. Reagents against one gene are numbered here. Not given: the amount of reagent.

Purpose: 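Finding genes that stop cells copying their DNA twice in one cycle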 (primary screen)
Cells: human HCT116 colorectal cancer cells
Reagent: single siRNA against human genes
Time to read-out: 3 days
Detection: 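Imaged Hoechst DNA stain sorts each cell into a cycle phase by DNA amount; per plate, G2 fraction set to 0% for non-targeting and 100% for GMNN siRNA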
Direction: G2 robust z-score and G2 cells, % of GMNN control: higher = more G2 cells, more excess DNA replication; raw share of cells in G2: higher = larger share of cells with G2 DNA content
Call rule: 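An siRNA counts as active if its G2 robust z-score lies at least 5 MADs above the screen median; here such calls match roughly 38% of GMNN control or more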

| Target gene | reagent | G2 robust z-score | G2 cells, % of GMNN control | raw share of cells in G2 (%) | outcome |
| --- | --- | --- | --- | --- | --- |
| MNX1-AS1 | 1 | -0.286 | 0.953 | 4 | inactive |
| MNX1-AS1 | 2 | -0.281 | 0.992 | 3.63 | inactive |
| MNX1-AS1 | 3 | 1.62 | 14.3 | 7.32 | inactive |
| ZNF224 | 1 | -0.87 | -3.15 | 2.48 | inactive |
| ZNF224 | 2 | -0.748 | -2.29 | 4.97 | inactive |
| ZNF224 | 3 | 0.0505 | 3.32 | 4.73 | inactive |
| HNRNPH3 | 1 | -0.157 | 1.86 | 4.25 | inactive |
| HNRNPH3 | 2 | 1.27 | 11.9 | 10.9 | inactive |
| HNRNPH3 | 3 | -0.466 | -0.308 | 3.97 | inactive |
| PPP1R11 | 1 | 1.24 | 11.7 | 8.59 | inactive |
| PPP1R11 | 2 | 1.1 | 10.7 | 7.52 | inactive |
| PPP1R11 | 3 | -1.06 | -4.51 | 2.14 | inactive |
| CMTM1 | 1 | -0.621 | -1.4 | 3.53 | inactive |
| CMTM1 | 2 | -0.354 | 0.479 | 3.47 | inactive |
| CMTM1 | 3 | 1.45 | 13.1 | 5.66 | inactive |
| SOFU1 | 1 | -0.093 | 2.31 | 5.05 | inactive |
| SOFU1 | 2 | -0.832 | -2.88 | 2.19 | inactive |
| SOFU1 | 3 | -0.0238 | 2.8 | 3.59 | inactive |
| SDE2 | 1 | -0.446 | -0.168 | 3.54 | inactive |
| SDE2 | 2 | 2.8 | 22.6 | 10.6 | inactive |
| SDE2 | 3 | -0.837 | -2.92 | 1.84 | inactive |
| CCDC28A | 1 | 0.344 | 5.39 | 6.44 | inactive |
| CCDC28A | 2 | 1.26 | 11.8 | 9.05 | inactive |
| CCDC28A | 3 | 0.416 | 5.9 | 5.36 | inactive |
| KLHL17 | 1 | -0.715 | -2.06 | 3.53 | inactive |
| KLHL17 | 2 | 2.45 | 20.2 | 14.6 | inactive |
| KLHL17 | 3 | -0.95 | -3.72 | 3.51 | inactive |
| PAQR5 | 1 | 1.07 | 10.5 | 8.11 | inactive |
| PAQR5 | 2 | 1.15 | 11 | 11 | inactive |
| PAQR5 | 3 | -0.242 | 1.26 | 4.28 | inactive |
| KIAA0319 | 1 | 5.52 | 41.8 | 24.2 | active |
| KIAA0319 | 2 | 1.27 | 11.9 | 8.91 | inactive |
| KIAA0319 | 3 | -0.559 | -0.968 | 3.05 | inactive |
| STX17-DT | 1 | -0.878 | -3.21 | 2.03 | inactive |
| STX17-DT | 2 | -0.132 | 2.04 | 4.41 | inactive |
| STX17-DT | 3 | -0.072 | 2.46 | 4.35 | inactive |
| C16orf54 | 1 | 1.65 | 14.6 | 8.34 | inactive |
| C16orf54 | 2 | 2.62 | 21.4 | 11.7 | inactive |
| C16orf54 | 3 | 0.982 | 9.88 | 8.01 | inactive |
| TTC32 | 1 | 0.164 | 4.12 | 5.73 | inactive |
| TTC32 | 2 | -0.1 | 2.26 | 3.82 | inactive |
| TTC32 | 3 | 0.0192 | 3.1 | 3.7 | inactive |
| CLASP1 | 1 | -0.543 | -0.851 | 6.03 | inactive |
| CLASP1 | 2 | 2.93 | 23.6 | 12 | inactive |
| CLASP1 | 3 | 6.3 | 47.3 | 20.1 | active |
| OR51B2 | 1 | 0.538 | 6.75 | 7.52 | inactive |
| OR51B2 | 2 | -0.961 | -3.79 | 2.91 | inactive |
| OR51B2 | 3 | -0.752 | -2.32 | 2.08 | inactive |
